Data taken from patent publication US20240409935A1, “Atg8ylation coordinates stress granule formation and mTOR inactivation in response to lysosomal damage” (priority 2023, published 2024).
These are yes or no findings as the source states them, for the method shown. In cells and extracts the contact can be indirect. Some results given as binding are weak or reduced against the parent protein; the word gives no strength.

Chains of the proteins cited; added tags and fusions are not shown. Residues count along the entry.
UniProt Q8WUM4, residues 362-702: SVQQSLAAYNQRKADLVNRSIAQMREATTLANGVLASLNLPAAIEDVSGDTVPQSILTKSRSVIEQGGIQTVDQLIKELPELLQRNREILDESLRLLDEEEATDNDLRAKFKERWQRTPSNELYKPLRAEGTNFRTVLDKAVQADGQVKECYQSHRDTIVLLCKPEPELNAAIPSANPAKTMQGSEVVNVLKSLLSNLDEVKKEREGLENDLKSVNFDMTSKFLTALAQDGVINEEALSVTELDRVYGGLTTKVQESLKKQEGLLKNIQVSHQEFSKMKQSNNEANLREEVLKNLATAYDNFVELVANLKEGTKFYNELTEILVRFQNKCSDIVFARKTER

Biological target: FLAG-tagged V domain of ALIX (UniProt Q8WUM4)
Test: co-IP with anti-FLAG from HEK293T cells expressing FLAG tagged ALIX constructs and Myc-PKR

B1: endogenous PACT (protein, UniProt O75569 1-313, looked up)
chain: MSQSRHRAEAPPLEREDSGTFSLGKMITAKPGKTPIQVLHEYGMKTKNIPVYECERSDVQIHVPTFTFRVTVGDITCTGEGTSKKLAKHRAAEAAINILKANASICFAVPDPLMPDPSKQPKNQLNPIGSLQELAIHHGWRLPEYTLSQEGGPAHKREYTTICRLESFMETGKGASKKQAKRNAAEKFLAKFSNISPENHISLTNVVGHSLGCTWHSLRNSPGEKINLLKRSLLSIPNTDYIQLLSEIAKEQGFNITYLDIDELSANGQYQCLAELSTSPITVCHGSGISCGNAQSDAAHNALQYLKIIAERK
  binding: binds
